Residue numbers refer to the chain shown, from its start. Results are given in words; binding and its absence hold for the method and conditions named. Some results given as binding are weak or reduced against the parent protein; the word gives no strength.
B1: Antibody 6 (antibody, V domains shown)
VH: QSLEESGGRLVTPGTPLTLTCTVSGIDLSTHAMTWVRQAPGKGLEWIGVINPSGSAYYATWVNGRFTISKTSTTVDLKITSPTTGDTAKYFCARDYITAGDYYMDAFDPWGPGTLVTVSS
VL: DIVMTQTPASVSAAVGGTVTIKCQASQSISNQLSWYQQKSGQPPKLLIYRASTLASGVPSRFKGSGSGTEFTLTISDLECADAATYYCQQGYNRDNVDNLFGGGTEVVVKG
B2: Antibody 1 (antibody, V domains shown)
VH: QSLEESGGRLVTPGTPLTLTCTVSGFSLSSQKVGWVRQAPGKGLEWIGIINNYGSTYYASWAKGRFTISKTSTTVDLRITSLTAEDTATYFCARDPDGSIVFDIWGPGTLVTVSL
VL: AQVLTQTASPVSAAVGGTVTINCQSSQSVVYNNRLSWFQQKPGQPPKLLIYGASTLASGVPSRFKGSGSGTQFTLTISDVQCDDAATYYCLGSYDCSSGDCHAFGGGTEVVVKG
B3: Antibody 4 (antibody, V domains shown)
VH: B2 VH with S29N, S30N, Q31Y, N52Y, G54S, S55Q, R78K, I79L, L82P, A84T
VL: AQVLTQTASPVSAAVGSTVTINCQSSQSVYSNKRLAWFQLKPGQPPKLLIYGASTLASGVPSRFKGSGSGTQFTLTISDVQCDDAATYYCAGGYDCSTGDCWTFGGGTEVVVTG
B4: Antibody 2 (antibody, V domains shown)
VH: QSVEESGGRLVTPGTPLTLTCTVSGFSLSSYAMIWVRQAPGKGLEWIGFISRSGITYYASWAKGRFTISKTSTTVDLKMTSLTTEDTATYFCAREFGAVGSDYYRDAFNLWGPGTLVTVSS
VL: DIVMTQTPASVEAAVGGTVTINCQASESINSWLSWYQQKPGQPPNLLIYRASTLASGVPSRFSGGGSGTEYTLTISDLECADAVTYYCQSYYEEDGIGYAFGGGTEVVVEG
B5: Antibody 5 (antibody, V domains shown)
VH: B4 VH with R9G, T15G, P16T, S30N, I34S, M79I, L82P, T89A, F108L, N109R
VL: DIVMTQTPSSVSAAVGGTVTIKCQASQSIGSNLAWYQQKPGQPPKLLIYGASTLESGVPSRFKGSGSGTEYTLTISDLECADAATYYCQSYYEGSDIGYAFGGGTEVVVEG

These binders were tested against Peptide B (assay: indirect ELISA, peptide coated on the plate, HRP goat anti-rabbit antibody, TMB, read at 650 nm; axes without titles, x is a log scale from -8 to -4).

binding	Binder
binds	B1
binds	B2
binds	B3
binds	B4
binds	B5

From patent US20240360206A1
